Target: chimeric CaR/mGluR5d receptor (Homo sapiens, UniProt P41594)
Assay: CaR/mGluR5d Screening Assay (FLIPR, intracellular calcium)
Type: cell-based
Details: HEK 293 cells expressing the chimeric CaR/mGluR5d receptor, Fluo-3 fluorescence; read-out: IC50 value in relation to CaR/mGluR5d
Description: HEK 293 cells expressing the chimeric CaR/mGluR5d receptor (clonal cell line hCaR/hmGluR5d_hek6) are plated 24 hours prior to assay at a density of 100,000 cells per well in Collagen I-coated 96-well black, clear bottom plates (Becton Dickenson) in DMEM supplemented with 10% FBS (Hyclone).
On the day of the assay, tissue culture medium is aspirated from the wells of a plate and 80 µL of Assay Buffer (Assay Buffer is: 20 mM HEPES, 146 mM NaCl, 5 mM KCl, 1 mM MgCl2, 1 mM CaCl2, 1 mg/ml BSA, 1 mg/ml glucose, pH 7.4) supplemented with 6 µM of the Ca^2+-sensitive dye, Fluo-3 AM (Molecular Probes) and 0.025% Pluronic (Molecular Probes) is added to each well. The plate is then incubated in the dark for 1 hour at room temperature to efficiently load the cells with Fluo-3. At the end of the incubation, extracellular Fluo-3 is removed by washing the plate with Assay buffer. Assay Buffer is added back to each well (final volume = 160 µL) prior to beginning the assay.
The plate is loaded into a FLIPR robotic device (Molecular Devices) with the laser setting at 0.8 Watts. […] Relative fluorescence intensity (excitation λ = 488 nm / emission λ = 510 nM) is monitored at relevant time intervals throughout the assay period to measure receptor activation and/or inhibition.

Sequences of proteins named here, by UniProt entry; tags and fusion partners are left off. Residues count along the entry.
UniProt P41594, 580-876, stated change not applied: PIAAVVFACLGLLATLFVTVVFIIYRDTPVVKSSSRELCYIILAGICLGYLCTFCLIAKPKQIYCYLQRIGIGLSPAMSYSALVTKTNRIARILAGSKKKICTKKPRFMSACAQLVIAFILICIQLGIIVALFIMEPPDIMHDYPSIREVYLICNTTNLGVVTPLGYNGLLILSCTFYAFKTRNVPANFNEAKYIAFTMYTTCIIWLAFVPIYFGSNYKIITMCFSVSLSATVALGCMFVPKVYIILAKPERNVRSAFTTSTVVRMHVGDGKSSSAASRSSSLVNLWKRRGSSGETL

Question: With `N#Cc1cccc(-c2nc(-c3ccccn3)no2)c1` [B21, 3-(2-Pyridyl)-5-(3-cyanophenyl)-1,2,4-oxadiazole] as the molecule, how does the IC50 read?
Answer: 43 nM
